Amino acid sequences for entries named in this document (tags omitted). Residues count along the entry.
UniProt Q00959, 23-1464 limits assumed: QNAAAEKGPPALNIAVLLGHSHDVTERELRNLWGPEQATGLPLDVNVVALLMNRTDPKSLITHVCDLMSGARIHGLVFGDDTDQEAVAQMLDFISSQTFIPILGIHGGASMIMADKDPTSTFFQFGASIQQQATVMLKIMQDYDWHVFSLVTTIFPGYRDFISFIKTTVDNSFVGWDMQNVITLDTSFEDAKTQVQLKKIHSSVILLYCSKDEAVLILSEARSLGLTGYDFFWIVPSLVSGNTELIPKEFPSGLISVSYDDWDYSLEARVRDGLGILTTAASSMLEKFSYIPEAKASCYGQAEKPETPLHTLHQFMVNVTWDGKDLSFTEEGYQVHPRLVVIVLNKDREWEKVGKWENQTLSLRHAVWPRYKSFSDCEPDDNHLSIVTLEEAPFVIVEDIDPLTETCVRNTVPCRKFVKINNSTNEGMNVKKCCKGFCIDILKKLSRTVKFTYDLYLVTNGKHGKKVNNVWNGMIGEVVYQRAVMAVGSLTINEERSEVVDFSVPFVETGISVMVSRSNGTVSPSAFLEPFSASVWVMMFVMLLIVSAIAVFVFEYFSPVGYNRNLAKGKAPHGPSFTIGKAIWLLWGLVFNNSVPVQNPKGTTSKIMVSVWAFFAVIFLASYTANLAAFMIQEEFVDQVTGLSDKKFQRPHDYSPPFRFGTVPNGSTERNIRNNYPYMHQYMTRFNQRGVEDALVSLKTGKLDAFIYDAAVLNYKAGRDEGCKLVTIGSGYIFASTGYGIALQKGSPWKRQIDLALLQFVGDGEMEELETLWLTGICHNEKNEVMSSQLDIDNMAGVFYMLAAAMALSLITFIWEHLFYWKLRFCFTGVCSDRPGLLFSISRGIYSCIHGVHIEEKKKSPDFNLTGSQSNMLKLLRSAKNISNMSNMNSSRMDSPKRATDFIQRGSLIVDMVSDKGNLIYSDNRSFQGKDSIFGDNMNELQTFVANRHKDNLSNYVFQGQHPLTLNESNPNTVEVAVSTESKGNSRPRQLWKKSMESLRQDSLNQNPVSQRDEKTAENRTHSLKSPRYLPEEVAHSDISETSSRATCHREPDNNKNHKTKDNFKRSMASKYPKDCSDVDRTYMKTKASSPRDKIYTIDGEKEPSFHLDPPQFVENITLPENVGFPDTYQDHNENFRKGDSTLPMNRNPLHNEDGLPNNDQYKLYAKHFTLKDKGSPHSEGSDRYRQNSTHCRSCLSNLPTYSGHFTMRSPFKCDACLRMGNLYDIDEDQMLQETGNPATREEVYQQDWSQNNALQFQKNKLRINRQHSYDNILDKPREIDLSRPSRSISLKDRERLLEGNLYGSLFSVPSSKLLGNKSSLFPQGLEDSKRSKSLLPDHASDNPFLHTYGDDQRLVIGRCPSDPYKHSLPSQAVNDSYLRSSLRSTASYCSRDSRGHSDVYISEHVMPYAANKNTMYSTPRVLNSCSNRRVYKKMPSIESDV
UniProt Q00960, 27-1482 limits assumed: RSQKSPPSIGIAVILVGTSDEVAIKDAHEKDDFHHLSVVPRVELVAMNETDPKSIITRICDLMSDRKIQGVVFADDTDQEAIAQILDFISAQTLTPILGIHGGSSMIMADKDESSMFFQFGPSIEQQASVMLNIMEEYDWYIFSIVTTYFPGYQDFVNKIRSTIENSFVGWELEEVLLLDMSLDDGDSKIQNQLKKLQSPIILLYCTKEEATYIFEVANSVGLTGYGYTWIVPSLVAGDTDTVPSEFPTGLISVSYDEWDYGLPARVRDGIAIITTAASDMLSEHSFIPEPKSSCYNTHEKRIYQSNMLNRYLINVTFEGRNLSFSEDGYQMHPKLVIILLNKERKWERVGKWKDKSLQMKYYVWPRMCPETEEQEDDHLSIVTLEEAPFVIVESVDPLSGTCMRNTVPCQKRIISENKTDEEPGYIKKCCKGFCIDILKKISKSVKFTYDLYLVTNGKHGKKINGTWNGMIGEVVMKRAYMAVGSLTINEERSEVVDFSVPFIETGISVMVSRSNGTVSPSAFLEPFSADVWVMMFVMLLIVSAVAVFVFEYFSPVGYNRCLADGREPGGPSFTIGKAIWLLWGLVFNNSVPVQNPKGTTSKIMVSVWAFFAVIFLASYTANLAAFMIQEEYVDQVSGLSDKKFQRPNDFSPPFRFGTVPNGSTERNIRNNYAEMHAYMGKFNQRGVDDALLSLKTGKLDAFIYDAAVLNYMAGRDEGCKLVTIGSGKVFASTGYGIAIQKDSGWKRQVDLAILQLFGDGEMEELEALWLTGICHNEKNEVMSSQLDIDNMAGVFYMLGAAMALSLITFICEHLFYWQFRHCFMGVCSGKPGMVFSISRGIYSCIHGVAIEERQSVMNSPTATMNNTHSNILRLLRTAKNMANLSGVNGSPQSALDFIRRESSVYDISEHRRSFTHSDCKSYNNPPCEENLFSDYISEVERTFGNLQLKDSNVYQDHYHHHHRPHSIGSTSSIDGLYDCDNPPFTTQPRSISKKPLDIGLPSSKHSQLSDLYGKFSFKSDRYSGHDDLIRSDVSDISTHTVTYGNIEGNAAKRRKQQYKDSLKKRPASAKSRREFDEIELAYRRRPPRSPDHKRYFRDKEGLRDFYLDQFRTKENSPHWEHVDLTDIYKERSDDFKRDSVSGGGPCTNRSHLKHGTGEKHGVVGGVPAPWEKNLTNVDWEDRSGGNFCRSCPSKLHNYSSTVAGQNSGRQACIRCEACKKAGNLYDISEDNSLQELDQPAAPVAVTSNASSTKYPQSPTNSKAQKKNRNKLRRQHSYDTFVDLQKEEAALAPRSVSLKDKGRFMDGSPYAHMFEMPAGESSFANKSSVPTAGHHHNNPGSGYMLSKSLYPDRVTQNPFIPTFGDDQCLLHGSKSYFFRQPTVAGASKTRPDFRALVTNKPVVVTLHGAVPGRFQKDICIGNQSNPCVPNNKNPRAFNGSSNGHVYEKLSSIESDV

In publication PMC11327140, “Selective inhibitor of sodium-calcium exchanger, SEA0400, affects NMDA receptor currents and abolishes their calcium-dependent block by tricyclic antidepressants” (Frontiers in Pharmacology, 2024):

Biological target: NMDA receptor (NMDAR) currents (Rattus norvegicus, UniProt P35439+Q00959+Q00960)
Test: Whole-cell patch-clamp recording of NMDA-activated currents in cortical neurons of primary culture
Assay type: cell-based
Details: 50 nM SEA0400, 1 mM extracellular Ca2+

CN(C)CCCN1c2ccccc2CCc2ccc(Cl)cc21 [CLO, clomipramine]
effect of SEA0400 on IC50 of NMDAR inhibition: had no effect
effect of SEA0400 on IC50 of NMDAR inhibition (listed as clomipramine): did not change
